Results are given in words; binding and its absence hold for the method and conditions named. For some assays here: In cells and extracts the contact can be indirect. Some binding calls cover weakened binding; strength is not graded here.
Assays:
[1] = target: Biotin-LACK156-173 (biotinylated 156-173 peptide of the Leishmania homolog of receptors for activated C kinase) (L. major); assay: co-IP; live MH7A cells incubated with 0.5 mM Biotin-LACK156-173 (or biotin) at 4 °C for 3 h and 30 min at room temperature, cross-linked with 1 mM BS3, lysed; 1 mg protein on streptavidin-coated magnetic beads at 4 °C for 4 h; Western blot; only the target purified
[2] = target: LACK156-173 (156-173 peptide of the Leishmania homolog of receptors for activated C kinase), unlabelled (L. major); assay: cellular thermal shift assay (CETSA); MH7A lysate incubated with LACK156-173 (2 mg/mL) or DMSO at room temperature for 1 h, heated for 3 min at the given temperature, soluble fraction analysed by Western blot; only the target purified

B1: Dolichyl-Diphosphooligosaccharide-Protein Glycosyltransferase Non-Catalytic Subunit (DDOST) (protein, UniProt P39656 43-456)
chain: SGPRTLVLLDNLNVRETHSLFFRSLKDRGFELTFKTADDPSLSLIKYGEFLYDNLIIFSPSVEDFGGNINVETISAFIDGGGSVLVAASSDIGDPLRELGSECGIEFDEEKTAVIDHHNYDISDLGQHTLIVADTENLLKAPTIVGKSSLNPILFRGVGMVADPDNPLVLDILTGSSTSYSFFPDKPITQYPHAVGKNTLLIAGLQARNNARVIFSGSLDFFSDSFFNSAVQKAAPGSQRYSQTGNYELAVALSRWVFKEEGVLRVGPVSHHRVGETAPPNAYTVTDLVEYSIVIQQLSNGKWVPFDGDDIQLEFVRIDPFVRTFLKKKGGKYSVQFKLPDVYGVFQFKVDYNRLGYTHLYSSTQVSVRPLQHTQYERFIPSAYPYYASAFSMMLGLFIFSIVFLHMKEKEKSD
binding [1]: binds | binding [2]: binds

Reference: paper PMC12097062
